We go through 60 molecules from PubChem BioAssay AID493014 (National Center for Advancing Translational Sciences (NCATS), 2011).

This is one part of the list. The main result of the screen is listed elsewhere. These columns were measured beside it and carry no call. Most of these compounds were active or inconclusive in the main read-out, so they are no random draw. Words in brackets tell the shape of the fitted curve; partial curves, single points and poor fits give uncertain potencies.

A short description of this assay: qHTS Assay to Find Inhibitors of Chronic Active B-Cell Receptor Signaling. Conditions: ABC-DLBCL IkBa-CBG/CBR reporter, luminescence ratio (green luciferase fused to IkBa over red control in TMD8 lymphoma cells), 4 h. The procedure, abridged:
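Compounds up to 46 uM were incubated four hours with TMD8 cells whose green CBG68 luciferase is fused to IkappaBalpha; red CBR luminescence normalised the signal, and concentration-effect curves were fitted to fusion, red and ratio data.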
A general note: Quantitative high-throughput screening tests each substance at several concentrations.

[1] abbreviates: measured here: CBR red luminescence, cell number.
Where [2] appears, read: measured here: IkBa-CBG green luminescence.

By AC50 is commonly meant the midpoint of the concentration-response curve, whichever way the signal moves. Regarding `Cc1cc(C(=O)CSc2nnc(-c3cccc(F)c3)n2N)c(C)n1Cc1ccc2c(c1)OCO2`, the concentration at half-maximal activity (AC50) under setting [1] was 29.1 µM [falling, partial curve, poor fit].

As to `CCOC(=O)N1C2=NC(C(=O)OC)=C(C(=O)OC)[C@@H]3N(C)c4ccccc4[C@]23C[C@H]1C(=O)OC`, the AC50 under setting [1] is 3.98 µM [rising, partial curve, poor fit]. On the same count and under the same terms, the figure for `COC(=O)c1cn(CCOc2ccccc2F)c2ccccc12` is 1.64 µM [rising, partial curve, poor fit]; for `CCn1cc(C(=O)NCCN(C)C)c(=O)c2cc(F)c(N3CCN(C)CC3)cc21` it is 0.447 µM [falling, full curve, poor fit]; for `Cc1cc(O)ccc1Nc1nc(-c2cccs2)cs1` it is 3.55 µM [rising, single point]. The same measure, in the same setting: in the case of `CCn1c(SCC(=O)N2CCOCC2)nc2oc3c(Cl)cc(Cl)cc3c(=O)c2c1=O` it was 2.82 µM [rising, full curve, poor fit]. On the same count and under the same terms, in the case of `O=C(C[C@@H]1C/C=C\CC[C@H](Cc2ccc(F)cc2)C(=O)OC[C@@H]2CCCN2C1=O)N[C@H](CO)Cc1ccccc1` it was 29.1 µM [falling, single point]; in that of `Cc1nc2ccc(NC(=O)c3ccc(Br)o3)cc2s1`, 25.1 µM [falling, single point]; in that of `Oc1cccc(NC(=S)N=Nc2c(O)[nH]c3ccccc23)c1`, 12.6 µM [falling, partial curve, poor fit]. As to `O=C(c1c[nH]c2ccccc12)N1CCN(Cc2ccccc2)CC1`, the concentration at half-maximal activity (AC50) under setting [1] was 7.08 µM [falling, full curve].

As to `O=C(CSc1nnc(-c2ccccn2)o1)Nc1ccccc1Cl`, under setting [1], the half-maximal activity concentration (AC50) is 8.91 µM [falling, partial curve, poor fit]. The same measure, in the same setting: the figure for `C=CCNC(=O)c1cc(-c2ccccc2O)on1` is 2.06 µM [falling, full curve]. Turning to `Cc1ccc2nc(SCC(=O)Nc3oc(C)c4c(C)n[nH]c(=O)c34)[nH]c2c1`, the AC50 under setting [1] is 29.1 µM [falling, single point]. `CCc1[nH]nc2c1C(C1C=CCCC1)C(C#N)=C(N)O2` (configuration not stated): the AC50 under setting [1] was 11.2 µM [falling, partial curve]. As to `CN(C(=O)CCCN1C(=O)c2cccc3cccc(c23)C1=O)c1ccccc1`, the AC50 is 20.6 µM [rising, single point] under setting [1] and 6.51 µM [rising, partial curve, poor fit] under setting [2]. In the case of `Cc1cccc(NC(=O)CCSc2ccccc2)c1C`, the concentration at half-maximal activity (AC50) under setting [1] was 35.5 µM [falling, single point]. On the same count and under the same terms, in the case of `CCOC1(OCC)C(c2ccc(Cl)cc2)C(C#N)(C#N)C1(OCC)OCC` (configuration not stated) it was 1.41 µM [falling, full curve]. On the same count and under the same terms, the figure for `COc1ccc(S(=O)(=O)N2c3cc(C)ccc3OCC2C(C)(C)C)cc1` (configuration not stated) is 3.98 µM [rising, single point]; for `Cc1cccc(N(C(=O)c2nsc(Cl)c2Cl)C(C(=O)NC2CCCC2)c2ccc(O)cc2)c1` (configuration not stated) it is 23.1 µM [falling, single point]; for `COc1cccc(NC(=O)Nc2nc(SC)ns2)c1` it is 3.98 µM [falling, partial curve]. Turning to `CCc1nnc(NC(=O)c2ccc(S(=O)(=O)N(CCOC)CCOC)cc2)s1`, the AC50 was 6.51 µM [falling, single point] under setting [1] and 6.51 µM [rising, partial curve, poor fit] under setting [2]. Take `O=C(CC1(O)C(=O)Nc2cc(Cl)cc(Cl)c21)c1ccncc1` (configuration not stated): the concentration at half-maximal activity (AC50) under setting [1] is 10.3 µM [falling, partial curve, poor fit]. Take `Cc1cc(C)n(-c2nc3ccccc3c(=O)n2OCC(=O)OCc2ccccc2)n1`: the AC50 under setting [2] was 15.8 µM [falling, single point]. With `COc1ccc(C(=O)NC(C)(C)C)cc1S(=O)(=O)N1CCCC1`, under setting [1], the AC50 was 2.06 µM [falling, single point]. As for `Cc1ccc(N=C2NC(=O)S/C2=C\c2ccco2)cc1`, the AC50 under setting [1] was 14.6 µM [falling, partial curve].

As for `COc1ccccc1C(CNC(=O)CSc1ccc2ccccc2c1)N(C)C` (configuration not stated), under setting [1], the AC50 is 11.2 µM [falling, single point]. Still for that read-out and setting: the figure for `COc1ccc(NS(=O)(=O)c2ccc(C)c(NC(=O)CNC(=O)c3ccco3)c2)cc1` is 2.31 µM [rising, full curve, poor fit]; for `O=C(NCc1ccco1)c1cc(-c2ccc(F)cc2)on1` it is 3.55 µM [falling, full curve].

Regarding `CCCC(=O)Nc1ccc(OCC(=O)OC)cc1`, the concentration at half-maximal activity (AC50) under setting [1] was 32.6 µM [rising, partial curve, poor fit]. As to `O=[N+]([O-])c1ccc(C[n+]2cccc3ccc4cccnc4c32)cc1`, the concentration at half-maximal activity (AC50) under setting [1] is 14.1 µM [falling, partial curve, poor fit].

As to `COc1cccc(COCCN2CCN(S(=O)(=O)c3ccc(C)cc3)CCC2=O)c1`, under setting [1], the AC50 was 25.9 µM [rising, partial curve, poor fit]. Same read-out and setting: the figure for `Cc1ccc2[nH]c(C(F)(F)F)cc(=O)c2c1` is 8.91 µM [falling, partial curve, poor fit]; for `N#CCC(=O)Nc1ccc(C(=O)Nc2cccnc2)cc1` it is 12.6 µM [falling, single point]. Consider `CCCCOc1ccccc1NC(=O)Cn1c(-c2nonc2N)nc2ccccc21`, for which the AC50 reads like this: under setting [1], 8.2 µM [rising, partial curve]; under setting [2], 6.51 µM [falling, partial curve]. For the molecule `O=C(NCC1CCCCC1)C1(CC2CC(c3ccc(Cl)cc3)=NO2)CCNCC1` (configuration not stated), the concentration at half-maximal activity (AC50) under setting [1] is 17.8 µM [falling, single point]. Still for that read-out and setting: in the case of `CCCCOc1ccc(-c2ncc([N+](=O)[O-])cn2)cc1` it was 28.2 µM [rising, single point]; in that of `O=C(CCCc1ccccc1)c1ccccc1`, 0.501 µM [rising, full curve, poor fit]; in that of `O=C(NCc1cccc(Cl)c1)NCc1cccc(Cl)c1`, 16.4 µM [rising, partial curve, poor fit]. On the same count and under the same terms, in the case of `CCC(C)(C)c1ccc(OCCCC[n+]2cccc(C)c2C)c(C(C)(C)CC)c1` it was 35.5 µM [falling, single point]; in that of `CC(=O)NC/C(C)=N\Nc1ccc([N+](=O)[O-])cc1`, 7.94 µM [rising, partial curve, poor fit]. The same measure, in the same setting: in the case of `CCOC(=O)NCc1ccc2[nH]c(C)cc2c1` it was 3.98 µM [rising, full curve, poor fit]. In the case of `C=CCOc1cccc(C(=O)N2CCCC(CNS(=O)(=O)c3cccs3)C2)c1` (configuration not stated), the half-maximal activity concentration (AC50) under setting [1] was 14.1 µM [rising, partial curve]. The same measure, in the same setting: in the case of `Cc1ccc(C(=O)Nc2nc(-c3ccccc3)c(-c3ccccc3)o2)cc1` it was 11.6 µM [falling, partial curve, poor fit]. Still for that read-out and setting: the figure for `COc1ccc(C[C@H]2CN3C(=NC[C@H]3Cc3ccccc3)N2CCNC(=O)c2ccc(C)c(Br)c2)cc1` is 20 µM [falling, single point]; for `CCOc1ncccc1C(=O)OCc1cc(=O)oc2c(C)c(C)ccc12` it is 0.631 µM [falling, full curve]; for `COc1ccc(C(=O)COC(=O)C2CCN(c3ccc(C(F)(F)F)cn3)CC2)c(OC)c1` it is 23.1 µM [rising, single point]. Still for that read-out and setting: in the case of `CCO/C=C1\C(=O)N(c2ccc(OCC)cc2)C(=O)c2ccccc21` it was 5.01 µM [rising, partial curve, poor fit]. Regarding `CCCc1cc(=O)n2[nH]c(-c3cc(OC)c(OC)c(OC)c3)nc2n1`, the AC50 by setting is: under setting [1], 23.1 µM [rising, single point]; under setting [2], 32.6 µM [falling, partial curve, poor fit]. For the molecule `Cc1nn(CCC#N)c(N)c1C1(O)C(=O)Nc2c(Cl)cc(Cl)cc21` (configuration not stated), the AC50 runs as follows: under setting [1], 20 µM [rising, partial curve, poor fit]; under setting [2], 15.8 µM [falling, single point].

In the case of `COc1cccc(CCNc2ncnc3c2nnn3C)c1`, the AC50 under setting [1] was 3.16 µM [falling, full curve, poor fit]. In the case of `COc1ccc2c(c1)OC[C@H]1[C@H]2N2C(=O)c3cc(OC)ccc3NC(=O)[C@@]2(C)[C@H]1c1ccccc1`, the AC50 runs as follows: under setting [1], 2.59 µM [falling, full curve]; under setting [2], 2.91 µM [rising, full curve, poor fit].

Consider `O=C(COC(=O)c1cccc(NS(=O)(=O)c2ccc(F)c(F)c2)c1)NC(=O)NC1CCCCC1`, for which the half-maximal activity concentration (AC50) under setting [1] is 20.6 µM [falling, single point]. For `CSc1ncc2ncn(C3OC(CO)C(O)C3O)c2n1` (configuration not stated), the concentration at half-maximal activity (AC50) is, setting by setting: under setting [1], 31.6 µM [falling, single point]; under setting [2], 12.6 µM [rising, partial curve, poor fit].

Regarding `O=C(NCc1ccc2c(c1)OCO2)c1nn(-c2ccccc2)c(=O)c2ccccc12`, under setting [1], the AC50 was 4.11 µM [rising, partial curve, poor fit]. Same read-out and setting: the figure for `CCOC(=O)c1c(C)nc(C)c(C(=O)OCC)c1-c1ccc(OC)cc1` is 14.6 µM [rising, partial curve, poor fit]; for `N#CC1=C(Nc2ccccc2)SC=C(c2ccc(F)cc2)N=C1N1CCOCC1` it is 3.98 µM [falling, single point]; for `Cc1cc2oc(C(=O)Nc3c(C)n(C)n(-c4ccccc4)c3=O)c(C)c2cc1Cl` it is 25.9 µM [falling, single point]. In the case of `COc1cccc(Nc2nc(-c3sc(NC(=O)c4ccco4)nc3C)cs2)c1`, under setting [1], the half-maximal activity concentration (AC50) was 14.1 µM [falling, single point]. On to `O=C(Cc1csc(N2CCOCC2)n1)N/N=C/c1ccc(Cl)cc1Cl`, for which, under setting [2], the AC50 is 6.51 µM [rising, partial curve, poor fit]. For the molecule `COc1ccc2sc(N3C(=O)C4CC=C(C)CC4C3=O)nc2c1` (configuration not stated), the AC50 under setting [1] is 25.9 µM [falling, single point].
